{
  "source": "PubChem BioAssay AID463181",
  "about": "(University of Pittsburgh Molecular Library Screening Center, 2010)",
  "assay": "inhibitors of zVAD-triggered L929 necroptosis, potency, dose response, L929 cells, duplicate IC50 (AID 463181)",
  "conditions": "L929 zVAD necroptosis rescue, ATP luminescence, 24 h; inhibition of cell death; at 50 µM; stronger effect = higher value",
  "note": "This is one part of the list. Further columns of the screen follow, without active or inactive calls.",
  "data": [
    {"compound": "COC(=O)N1C(c2ccccc2)C1c1ccccc1", "note": "(stereo unspecified)", "values": [
      {"measurement": "inhibition", "value": 39.4, "unit": "%"}
    ]}
  ]
}
